We go through one molecule from PMC10763294.

The chains behind the UniProt entries cited, without tags or fusion partners.
UniProt Q8N9U0: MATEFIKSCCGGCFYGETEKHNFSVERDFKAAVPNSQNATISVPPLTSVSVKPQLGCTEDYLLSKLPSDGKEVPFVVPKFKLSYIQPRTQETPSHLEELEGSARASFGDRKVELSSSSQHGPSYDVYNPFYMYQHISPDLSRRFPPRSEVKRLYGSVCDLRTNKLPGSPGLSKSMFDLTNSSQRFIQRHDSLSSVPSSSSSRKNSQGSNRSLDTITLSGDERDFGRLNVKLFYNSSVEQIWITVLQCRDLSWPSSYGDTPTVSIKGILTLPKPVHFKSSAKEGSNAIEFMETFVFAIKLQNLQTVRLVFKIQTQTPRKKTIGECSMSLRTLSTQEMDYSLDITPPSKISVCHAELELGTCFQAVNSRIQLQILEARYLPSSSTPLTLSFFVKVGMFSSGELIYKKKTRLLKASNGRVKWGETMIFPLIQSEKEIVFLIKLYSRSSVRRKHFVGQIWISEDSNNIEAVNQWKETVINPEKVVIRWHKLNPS

For the assay, the target named is FLAG-TC2N (tandem C2 domains, nuclear), full-length (human) (UniProt Q8N9U0). In words: co-IP; extracts of TC2N-overexpressing BC cells, IP with anti-Flag antibody and protein A/G agarose beads, 16 h at 4 °C, WB; high glucose condition; normal IgG as negative control.

No constants are given. Whether binding was seen depends on the method and setting. Binding seen in cells or lysates may run through a third protein. Some entries that bind do so weakly or less than the wild type.

B1: IPO5 (protein, UniProt O00410 1-1097)
chain: MAAAAAEQQQFYLLLGNLLSPDNVVRKQAEETYENIPGQSKITFLLQAIRNTTAAEEARQMAAVLLRRLLSSAFDEVYPALPSDVQTAIKSELLMIIQMETQSSMRKKVCDIAAELARNLIDEDGNNQWPEGLKFLFDSVSSQNVGLREAALHIFWNFPGIFGNQQQHYLDVIKRMLVQCMQDQEHPSIRTLSARATAAFILANEHNVALFKHFADLLPGFLQAVNDSCYQNDDSVLKSLVEIADTVPKYLRPHLEATLQLSLKLCGDTSLNNMQRQLALEVIVTLSETAAAMLRKHTNIVAQTIPQMLAMMVDLEEDEDWANADELEDDDFDSNAVAGESALDRMACGLGGKLVLPMIKEHIMQMLQNPDWKYRHAGLMALSAIGEGCHQQMEGILNEIVNFVLLFLQDPHPRVRYAACNAVGQMATDFAPGFQKKFHEKVIAALLQTMEDQGNQRVQAHAAAALINFTEDCPKSLLIPYLDNLVKHLHSIMVLKLQELIQKGTKLVLEQVVTSIASVADTAEEKFVPYYDLFMPSLKHIVENAVQKELRLLRGKTIECISLIGLAVGKEKFMQDASDVMQLLLKTQTDFNDMEDDDPQISYMISAWARMCKILGKEFQQYLPVVMGPLMKTASIKPEVALLDTQDMENMSDDDGWEFVNLGDQQSFGIKTAGLEEKSTACQMLVCYAKELKEGFVEYTEQVVKLMVPLLKFYFHDGVRVAAAESMPLLLECARVRGPEYLTQMWHFMCDALIKAIGTEPDSDVLSEIMHSFAKCIEVMGDGCLNNEHFEELGGILKAKLEEHFKNQELRQVKRQDEDYDEQVEESLQDEDDNDVYILTKVSDILHSIFSSYKEKVLPWFEQLLPLIVNLICPHRPWPDRQWGLCIFDDVIEHCSPASFKYAEYFLRPMLQYVCDNSPEVRQAAAYGLGVMAQYGGDNYRPFCTEALPLLVRVIQSADSKTKENVNATENCISAVGKIMKFKPDCVNVEEVLPHWLSWLPLHEDKEEAVQTFNYLCDLIESNHPIVLGPNNTNLPKIFSIIAEGEMHEAIKHEDPCAKRLANVVRQVQTSGGLWTECIAQLSPEQQAAIQELLNSA
Take B1: the binding entry was “binds”.
